Reference: publication PMC8670385
Results are given in words; binding and its absence hold for the method and conditions named. In cells and extracts the contact can be indirect. Some results given as binding are weak or reduced against the parent protein; the word gives no strength.

Protein sequences, listed by entry. Tags and fused reporters are not part of them.
UniProt Q13546: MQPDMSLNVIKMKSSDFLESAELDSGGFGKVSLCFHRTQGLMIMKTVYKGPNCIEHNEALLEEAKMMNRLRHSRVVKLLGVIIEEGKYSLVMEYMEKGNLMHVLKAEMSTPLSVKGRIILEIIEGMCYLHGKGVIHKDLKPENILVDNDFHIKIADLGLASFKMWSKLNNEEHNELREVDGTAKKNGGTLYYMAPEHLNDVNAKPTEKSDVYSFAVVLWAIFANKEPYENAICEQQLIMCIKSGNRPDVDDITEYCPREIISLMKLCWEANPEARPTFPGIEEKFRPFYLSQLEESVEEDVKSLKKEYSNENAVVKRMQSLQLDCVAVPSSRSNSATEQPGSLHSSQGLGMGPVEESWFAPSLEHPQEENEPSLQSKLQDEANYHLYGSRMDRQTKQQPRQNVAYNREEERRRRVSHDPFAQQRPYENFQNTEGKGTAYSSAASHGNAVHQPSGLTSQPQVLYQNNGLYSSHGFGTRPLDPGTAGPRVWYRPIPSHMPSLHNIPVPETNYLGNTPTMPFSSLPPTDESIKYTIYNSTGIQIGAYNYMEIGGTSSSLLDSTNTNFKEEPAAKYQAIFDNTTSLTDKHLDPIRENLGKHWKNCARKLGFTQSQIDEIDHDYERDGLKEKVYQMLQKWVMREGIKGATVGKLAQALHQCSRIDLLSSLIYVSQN
UniProt Q9Y572: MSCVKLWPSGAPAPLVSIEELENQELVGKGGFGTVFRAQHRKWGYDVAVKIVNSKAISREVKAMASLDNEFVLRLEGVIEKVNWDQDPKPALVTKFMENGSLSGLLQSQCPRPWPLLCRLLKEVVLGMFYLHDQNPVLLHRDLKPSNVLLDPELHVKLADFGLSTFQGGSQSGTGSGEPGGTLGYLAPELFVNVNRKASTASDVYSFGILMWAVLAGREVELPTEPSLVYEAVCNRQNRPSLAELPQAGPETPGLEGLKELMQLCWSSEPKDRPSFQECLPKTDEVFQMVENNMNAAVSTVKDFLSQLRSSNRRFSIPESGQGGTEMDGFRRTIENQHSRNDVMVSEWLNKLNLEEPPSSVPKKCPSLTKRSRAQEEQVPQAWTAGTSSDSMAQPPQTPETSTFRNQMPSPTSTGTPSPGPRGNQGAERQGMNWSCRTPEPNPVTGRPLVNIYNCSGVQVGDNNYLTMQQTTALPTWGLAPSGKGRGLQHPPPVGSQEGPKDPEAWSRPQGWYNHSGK

Tests used:
[1] = target: receptor-interacting serine-threonine kinase 1 (human (endogenous in HTR8/SVneo)) (UniProt Q13546); experiment: co-IP; HTR8/SVneo cells treated with GSK180736A; lysed in 50 mM Tris-Cl pH 7.5, 150 mM NaCl, 1 mM EDTA, 1% Triton X-100; 1 mg lysate with anti-RIPK1 or anti-RIPK3 antibody on Protein A/G magnetic beads; immunoblot
[2] = target: receptor-interacting serine-threonine kinase 1 (human (endogenous in HTR8/SVneo)) (UniProt Q13546); experiment: condition: only cells without GSK180736A (control group); co-IP; HTR8/SVneo cells without GSK180736A (control group); lysed in 50 mM Tris-Cl pH 7.5, 150 mM NaCl, 1 mM EDTA, 1% Triton X-100; 1 mg lysate with anti-RIPK1 or anti-RIPK3 antibody on Protein A/G magnetic beads; immunoblot

- binding [1]: binds
- binding [2]: no binding
Substance: receptor-interacting serine-threonine kinase 3 (from UniProt Q9Y572 1-518)
